# doi:10.1101/2024.10.18.619078
# Experiments:
# [1] = biological target: HA-TurboID-LIFERING C392R (Arabidopsis thaliana); experiment: proximity labelling
# [2] = biological target: HA-TurboID-LIFERING, wild-type (Arabidopsis thaliana); experiment: proximity labelling
binder,measurement,setting,value
"acyl-CoA dehydrogenase IBR3 (At3g06810), endogenous (protein, UniProt Q8RWZ3 1-824, biotinylated by TurboID in the cells (sites not given)) MGSSTGDLVTRIQSAHRFDHDALFRFAADNVSGFPTNPSQFKVSQFGHGQSNPTFLIEVGSGSSLKRYVLRKKPPGKLLQSAHAVDREFQVLRALGEHTQVPVPKVFCLCTDPAVIGTAFYIMEFMEGRIFIDPKLPNVAPERRNAIYRATAKALASLHSADVDAIGLEKYGRRGNYCKRQIDRWFKQYLASTSEGKPERNPKMFELVDWLRKNIPAEDSTGATSGLVHGDFRIDNLVFHPSEDRVIGIIDWELSTLGNQMCDVAYSCMHYIVNVQLDKEHVSEGFETTGLPEGMLSMPEFLLEYCSASGKPWPAANWKFYVAFSLFRAASIYTGVYSRWLMGNASAGERARNTGVQANELVESALGYIARENVLPEHPPSVQRDVSPSYESLVDGSGRFIPNRKVLELRQKLIKFMETHIYPMENEFSKLAQSDMRWTVHPQEEKLKEMAKREGLWNLFVPVDSAARARRELAATENKHNLSGKSFDQLFGEGLTNLEYGYLCEIMGRSVWAPQVFNCGAPDTGNMEVILRYGNKEQISEWLIPLLEGRIRSGFAMTEPQVASSDATNIECSIRRQGDSYVINGTKWWTSGAMDPRCRVLILMGKTDFNAPKHKQQSMILVDMRTPGISVKRPLTVFGFDDAPHGHAEISFENVVVPAKNILLGEGRGFEIAQGRLGPGRLHHCMRLIGAAERGMELMAQRALSRKTFGKFIAQHGSFVSDLAKLRVELEGTRLLVLEAADHLDKFGNKKARGILAMAKVAAPNMALKVLDTAIQVHGAAGVSSDTVLAHLWATARTLRIADGPDEVHLGTIGKLELQRASKL",binding,[1],binds
same,binding,[2],binds

# Results are given in words; binding and its absence hold for the method and conditions named. Binding seen in cells or lysates may run through a third protein. A yes stands for co-enrichment or nearness to the bait. Other partners may have been found.
